Experimental data: publication PMC8968728
No constants are given. Whether binding was seen depends on the method and setting. In cells and extracts the contact can be indirect. These calls come from enrichment with a bait or labelling near it, and not all partners need be listed.

By UniProt entry, the sequences of proteins in these tests, tags left out.
UniProt P07355: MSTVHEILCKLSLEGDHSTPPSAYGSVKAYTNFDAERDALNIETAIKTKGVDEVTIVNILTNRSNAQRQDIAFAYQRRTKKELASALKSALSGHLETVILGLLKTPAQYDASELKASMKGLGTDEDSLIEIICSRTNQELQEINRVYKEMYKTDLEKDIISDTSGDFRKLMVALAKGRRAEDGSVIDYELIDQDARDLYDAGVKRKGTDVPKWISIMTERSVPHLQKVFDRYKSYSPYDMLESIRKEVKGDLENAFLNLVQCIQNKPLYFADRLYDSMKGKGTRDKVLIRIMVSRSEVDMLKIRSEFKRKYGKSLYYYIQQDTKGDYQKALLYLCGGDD
UniProt P04792: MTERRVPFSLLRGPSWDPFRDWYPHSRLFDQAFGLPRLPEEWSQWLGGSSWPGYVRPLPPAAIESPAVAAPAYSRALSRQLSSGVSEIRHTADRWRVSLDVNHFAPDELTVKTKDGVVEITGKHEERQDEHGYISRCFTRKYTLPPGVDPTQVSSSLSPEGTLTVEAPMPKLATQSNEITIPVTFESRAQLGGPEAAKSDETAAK
UniProt P08670: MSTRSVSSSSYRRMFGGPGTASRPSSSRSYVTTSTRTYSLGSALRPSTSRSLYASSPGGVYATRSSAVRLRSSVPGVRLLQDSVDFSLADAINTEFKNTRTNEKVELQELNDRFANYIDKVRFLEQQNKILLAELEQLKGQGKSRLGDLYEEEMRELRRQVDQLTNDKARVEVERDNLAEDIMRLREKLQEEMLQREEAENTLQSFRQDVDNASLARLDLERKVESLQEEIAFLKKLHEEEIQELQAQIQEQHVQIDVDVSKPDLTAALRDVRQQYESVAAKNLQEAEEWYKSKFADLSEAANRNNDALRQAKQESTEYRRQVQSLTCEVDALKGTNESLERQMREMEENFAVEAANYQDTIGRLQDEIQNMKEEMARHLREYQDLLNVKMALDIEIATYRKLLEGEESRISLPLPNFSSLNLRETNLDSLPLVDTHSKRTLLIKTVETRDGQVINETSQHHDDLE

Target: Annexin A2 (human (endogenous in CNE2(R743))) (UniProt P07355)
Assay: affinity purification with mass spectrometry; Co-IP (Pierce Co-Immunoprecipitation Kit) from sonicated lysate of log-phase CNE2(R743) cells in PBS with 1 mM PMSF; enriched ANXA2-interacting proteins separated by SDS-PAGE, bands identified by MALDI-TOF-MS (Mascot, NCBInr); hits analysed in the STRING database

| Substance | binding |
| --- | --- |
| HSP27 (from UniProt P04792 1-205) | binds |
| Vimentin (from UniProt P08670 1-466) | binds |
